PubChem BioAssay AID651844 (Broad Institute, 2012)
This list was built around the results that the source calls inconclusive (neither active nor inactive); the mix of calls is not that of the screen. Activity calls are given as the source filed them.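 Rule for the calls: active = every test run shows a luminescence drop with half-maximal concentration at most twice the top tested dose; inconclusive = test runs disagree, weak flat response, or unreliable curve fit; inactive = the rest.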

Assay: mouse fibroblast viability loss – cell-based, dry powder samples, cytotoxicity control, dose response (AID 651844)
Settings: NIH/3T3 viability, CellTiter-Glo ATP luminescence, 90 h; at 16 µM (top of the series)

Q: For CC(C)N1C[C@H](C)[C@@H](CN(C)Cc2cccc(Cl)c2)Oc2c(NC(=O)c3ccncc3)cccc2C1=O, which activity change, negative = cytotoxicity is on record?
A: The activity change, negative = cytotoxicity was inactive: -14.4%.

Q: Which activity change, negative = cytotoxicity does the source give for CC(C)N1C[C@H](C)[C@@H](CN(C)CC2CCOCC2)Oc2c(NC(=O)c3ccncc3)cccc2C1=O here?
A: The activity change, negative = cytotoxicity was inactive: -5.01%.

Q: Which activity change, negative = cytotoxicity does the source give for CNC[C@H]1Oc2c(NC(=O)c3ccccc3)cccc2C(=O)N(C(C)C)C[C@@H]1C here?
A: Its activity change, negative = cytotoxicity is inactive: -2.74%.

Q: For C[C@H](CO)N1C[C@H](C)[C@H](CN(C)Cc2ccc(Oc3ccccc3)cc2)Oc2c(NC(=O)c3ccncc3)cccc2C1=O, which activity change, negative = cytotoxicity is on record?
A: The activity change, negative = cytotoxicity was inconclusive: -60%.

Q: With CC(C)N1C[C@H](C)[C@@H](CN(C)C(=O)OC(C)(C)C)Oc2c(C(=O)O)cccc2C1=O as the compound, how does the activity change, negative = cytotoxicity read?
A: Its activity change, negative = cytotoxicity is inactive: 9.41%.

Q: For C[C@@H]1CN([C@H](C)CO)C(=O)c2cccc(NC(=O)c3ccncc3)c2O[C@H]1CN(C)Cc1ccc(C(F)(F)F)cc1, which activity change, negative = cytotoxicity is on record?
A: Its activity change, negative = cytotoxicity is inconclusive: -58.4%.

Q: With C[C@@H]1CN([C@@H](C)CO)C(=O)c2cccc(NC(=O)c3ccncc3)c2O[C@H]1CN(C)Cc1ccc(-c2ccccc2)cc1 as the compound, how does the activity change, negative = cytotoxicity read?
A: Its activity change, negative = cytotoxicity is inconclusive: -25.9%.

Q: Which activity change, negative = cytotoxicity does the source give for C[C@H]1CN([C@@H](C)CO)C(=O)c2cccc(NC(=O)c3ccncc3)c2O[C@@H]1CN(C)Cc1ccc(Cl)c(Cl)c1 here?
A: The activity change, negative = cytotoxicity was inconclusive: -38.2%.

Q: Which activity change, negative = cytotoxicity does the source give for CC(C)N1C[C@H](C)[C@@H](CN(C)Cc2ccc(Oc3ccccc3)cc2)Oc2c(NC(=O)c3ccncc3)cccc2C1=O here?
A: The activity change, negative = cytotoxicity was inconclusive: -18.5%.

Q: Which activity change, negative = cytotoxicity does the source give for C[C@H]1CN([C@@H](C)CO)C(=O)c2cccc(NC(=O)c3ccncc3)c2O[C@@H]1CN(C)Cc1ccncc1 here?
A: The activity change, negative = cytotoxicity was inactive: -5.78%.

Q: Which activity change, negative = cytotoxicity does the source give for C[C@@H]1CN([C@@H](C)CO)C(=O)c2cccc(NC(=O)c3ccncc3)c2O[C@H]1CN(C)Cc1ccccc1 here?
A: The activity change, negative = cytotoxicity was inconclusive: -20.2%.

Q: For CC(C)N1C[C@H](C)[C@@H](CN(C)Cc2ccccc2Cl)Oc2c(NC(=O)c3ccncc3)cccc2C1=O, which activity change, negative = cytotoxicity is on record?
A: Its activity change, negative = cytotoxicity is inactive: -10.6%.

Q: Which activity change, negative = cytotoxicity does the source give for CC(C)N1C[C@H](C)[C@@H](CN(C)Cc2ccc(Oc3ccccc3)cc2)Oc2c(NC(=O)c3cccnc3)cccc2C1=O here?
A: The activity change, negative = cytotoxicity was inactive: 11.5%.

Q: Which activity change, negative = cytotoxicity does the source give for C[C@@H]1CN([C@@H](C)CO)C(=O)c2cccc(NC(=O)c3ccncc3)c2O[C@H]1CN(C)Cc1ccc(Cl)cc1 here?
A: The activity change, negative = cytotoxicity was inconclusive: -19.8%.

Q: Which activity change, negative = cytotoxicity does the source give for C[C@H]1CN([C@@H](C)CO)C(=O)c2cccc(NC(=O)c3ccncc3)c2O[C@H]1CN(C)Cc1ccc(Oc2ccccc2)cc1 here?
A: Its activity change, negative = cytotoxicity is inconclusive: -26%.

Q: For CC(C)N(C)C(=O)c1cccc(NC(=O)c2ccncc2)c1OCCCN(C)Cc1ccc(Oc2ccccc2)cc1, which activity change, negative = cytotoxicity is on record?
A: Its activity change, negative = cytotoxicity is inconclusive: -73.1%.

Q: With CC(C)N1C[C@H](C)[C@@H](CN(C)Cc2ccc(Cl)cc2)Oc2c(NC(=O)c3ccncc3)cccc2C1=O as the compound, how does the activity change, negative = cytotoxicity read?
A: The activity change, negative = cytotoxicity was inactive: -8.69%.

Q: With C[C@@H]1CN([C@H](C)CO)C(=O)c2cccc(NC(=O)c3ccncc3)c2O[C@H]1CN(C)Cc1ccccc1 as the compound, how does the activity change, negative = cytotoxicity read?
A: The activity change, negative = cytotoxicity was inconclusive: -33%.

Q: Which activity change, negative = cytotoxicity does the source give for CC(C)N1C[C@H](C)[C@@H](CN(C)Cc2ccc(Oc3ccccc3)cc2)Oc2c(NC(=O)c3ccccc3)cccc2C1=O here?
A: The activity change, negative = cytotoxicity was inactive: 15.6%.

Q: With C[C@@H]1CN([C@@H](C)CO)C(=O)c2cccc(NC(=O)c3ccncc3)c2O[C@H]1CN(C)Cc1ccc(C(F)(F)F)cc1 as the compound, how does the activity change, negative = cytotoxicity read?
A: The activity change, negative = cytotoxicity was inconclusive: -29.2%.

Q: For C[C@@H]1CN([C@@H](C)CO)C(=O)c2cccc(NC(=O)c3ccncc3)c2O[C@H]1CN(C)Cc1cccc(Cl)c1, which activity change, negative = cytotoxicity is on record?
A: Its activity change, negative = cytotoxicity is inactive: -21.4%.

Q: With C[C@H](CO)N1C[C@H](C)[C@@H](CN(C)Cc2ccc(Oc3ccccc3)cc2)Oc2c(NC(=O)c3ccncc3)cccc2C1=O as the compound, how does the activity change, negative = cytotoxicity read?
A: The activity change, negative = cytotoxicity was inconclusive: -40%.

Q: With CC(C)N1C[C@H](C)[C@@H](CN(C)C(=O)OC(C)(C)C)Oc2c(NC(=O)c3ccncc3)cccc2C1=O as the compound, how does the activity change, negative = cytotoxicity read?
A: Its activity change, negative = cytotoxicity is inactive: -39.8%.

Q: Which activity change, negative = cytotoxicity does the source give for C[C@@H]1CN([C@H](C)CO)C(=O)c2cccc(NC(=O)c3ccncc3)c2O[C@H]1CN(C)Cc1ccc(Oc2ccccc2)cc1 here?
A: The activity change, negative = cytotoxicity was inconclusive: -93.9%.

Q: Which activity change, negative = cytotoxicity does the source give for C[C@@H]1CN(C)C(=O)c2cccc(NC(=O)c3ccncc3)c2O[C@H]1CN(C)Cc1ccc(Oc2ccccc2)cc1 here?
A: The activity change, negative = cytotoxicity was inconclusive: -42.1%.

Q: Which activity change, negative = cytotoxicity does the source give for C[C@@H]1CN([C@@H](C)CO)C(=O)c2cccc(NC(=O)c3ccncc3)c2O[C@H]1CN(C)Cc1ccccc1Cl here?
A: Its activity change, negative = cytotoxicity is inconclusive: -8.97%.

Q: Which activity change, negative = cytotoxicity does the source give for CCCn1ncc(CN(C)C[C@H]2Oc3c(NC(=O)c4ccncc4)cccc3C(=O)N(C(C)C)C[C@@H]2C)c1C here?
A: The activity change, negative = cytotoxicity was inactive: -12.5%.

Q: Which activity change, negative = cytotoxicity does the source give for C[C@H]1CN([C@@H](C)CO)C(=O)c2cccc(NC(=O)c3ccncc3)c2O[C@@H]1CN(C)Cc1ccc(Oc2ccccc2)cc1 here?
A: The activity change, negative = cytotoxicity was inconclusive: -145%.

Q: Which activity change, negative = cytotoxicity does the source give for CC(C)N1C[C@@H](C)[C@H](CN(C)Cc2cccc(Oc3ccccc3)c2)Oc2c(NC(=O)c3ccncc3)cccc2C1=O here?
A: The activity change, negative = cytotoxicity was inconclusive: 5.5%.

Q: Which activity change, negative = cytotoxicity does the source give for C[C@@H]1CN([C@H](C)CO)C(=O)c2cccc(NC(=O)c3ccncc3)c2O[C@@H]1CN(C)Cc1ccc(Oc2ccccc2)cc1 here?
A: The activity change, negative = cytotoxicity was inconclusive: -44.5%.

Q: Which activity change, negative = cytotoxicity does the source give for C[C@H]1CN([C@@H](C)CO)C(=O)c2cccc(NC(=O)c3ccncc3)c2O[C@@H]1CN(C)Cc1ccccc1 here?
A: Its activity change, negative = cytotoxicity is inactive: -1.03%.

Q: With CC(C)N1C[C@H](C)[C@@H](CN(C)C(=O)OC(C)(C)C)Oc2c(C(=O)Nc3ccncc3)cccc2C1=O as the compound, how does the activity change, negative = cytotoxicity read?
A: Its activity change, negative = cytotoxicity is inactive: -15%.

Q: For C[C@H]1CN([C@@H](C)CO)C(=O)c2cccc(NC(=O)c3ccncc3)c2O[C@@H]1CN(C)Cc1ccc(-c2ccccc2)cc1, which activity change, negative = cytotoxicity is on record?
A: The activity change, negative = cytotoxicity was inconclusive: -33.4%.

Q: With C[C@@H]1CN([C@@H](C)CO)C(=O)c2cccc(NC(=O)c3ccncc3)c2O[C@H]1CN(C)Cc1ccc2c(c1)OCO2 as the compound, how does the activity change, negative = cytotoxicity read?
A: Its activity change, negative = cytotoxicity is inconclusive: -55.9%.

Q: With C[C@@H]1CN([C@@H](C)CO)C(=O)c2cccc(NC(=O)c3ccncc3)c2O[C@H]1CN(C)Cc1ccc(Oc2ccccc2)cc1 as the compound, how does the activity change, negative = cytotoxicity read?
A: The activity change, negative = cytotoxicity was inconclusive: -46.3%.

Q: Which activity change, negative = cytotoxicity does the source give for CC(C)N1C[C@H](C)[C@@H](CN(C)C(=O)OC(C)(C)C)Oc2c(NC(=O)c3ccccc3)cccc2C1=O here?
A: Its activity change, negative = cytotoxicity is inactive: 14.7%.

Q: With C[C@H]1CN([C@@H](C)CO)C(=O)c2cccc(NC(=O)c3ccncc3)c2O[C@@H]1CN(C)Cc1ccc(C(F)(F)F)cc1 as the compound, how does the activity change, negative = cytotoxicity read?
A: Its activity change, negative = cytotoxicity is inactive: -16.9%.

Q: With C[C@H]1CN([C@@H](C)CO)C(=O)c2cccc(NC(=O)c3ccncc3)c2O[C@@H]1CN(C)Cc1ccc(C(=O)O)cc1 as the compound, how does the activity change, negative = cytotoxicity read?
A: The activity change, negative = cytotoxicity was inactive: -2.16%.

Q: Which activity change, negative = cytotoxicity does the source give for C[C@@H]1CN([C@H](C)CO)C(=O)c2cccc(NC(=O)c3ccncc3)c2O[C@H]1CN(C)CC1CCCCC1 here?
A: The activity change, negative = cytotoxicity was inconclusive: -23.3%.
